Results published in the supplement of paper PMC10735217.
Structures can show the parent of a compound that is named as a salt. This is one part of the list. Single values are uncertain here, since repeats match poorly.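 In a drug-repurposing library screen, luminescence reads luciferase driven by eight TEAD-binding elements, stably integrated into human kidney-derived cells. Compounds scoring over five robust Z scores above the plate mean are called hits.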

Tested on: HEK293A TEAD-LUC reporter
Test: TEAD-luciferase reporter activity (YAP activation), robust Z score vs plate; higher = stronger YAP/TEAD activation
Settings: 24 h

Row | SMILES | TEAD-luciferase reporter activity (compound concentration: 200 nM) | TEAD-luciferase reporter activity (compound concentration: 2 uM) | TEAD-luciferase reporter activity (compound concentration: 10 uM)
1 | CC(C)(C)NC(=O)c1ccc(Oc2cc(F)c(CC(=O)O)cc2Cl)c(NS(=O)(=O)c2ccc(Cl)cc2)c1 | inactive: -1.04 | inactive: 0.608 | inactive: 0.809
2 | COC(=O)c1ccccc1-c1c2ccc(N)cc2[o+]c2cc(N)ccc12 [Rhodamine 123] | inactive: 2.77 | inactive: -1.07 | inactive: -0.44
3 | CC1CCOc2cccc(Oc3ccc(N4C(=O)NC(C)(C)C4=O)cn3)c21 (stereo not drawn) | inactive: -1.75 | inactive: -0.00445 | inactive: 0.452
4 | CO[C@H]1C=CC=C(C)C(=O)NC2=CC(=O)C(N)=C(C[C@@H](C)C[C@H](OC)[C@H](O)[C@@H](C)C=C(C)[C@@H]1OC(N)=O)C2=O [17-Aminogeldanamycin] | inactive: -2.19 | inactive: -0.619 | inactive: -1.46
5 | CC(CN1CCCCC1)C(=O)c1ccc2ccccc2c1 (stereo not drawn) | inactive: -0.851 | inactive: -1.08 | inactive: 0.0934
6 | COc1ccc(CN2CCCCC23Cc2ccccc2CNC3=O)cc1 (stereo not drawn) | inactive: -1.72 | – | inactive: -0.931
7 | CCCCCCCCCCCCCCCCCCOCC1(COP(=O)([O-])OCC[N+](C)(C)C)CCCO1 (stereo not drawn) | inactive: 0.823 | inactive: -0.849 | inactive: 0.143
8 | O=C(N[C@H](C(=O)O)c1ccccc1)c1ccc(-c2ccc(C(F)(F)F)cc2)cc1 | inactive: -0.81 | inactive: -1.42 | inactive: 0.166
9 | CCCC(F)(F)C[C@H](N[C@@H](c1ccc(F)cc1)C(F)(F)F)C(=O)NC1(C#N)CC1 | inactive: -1.69 | inactive: -1.46 | inactive: -1.16
10 | C[C@H]1COc2c(C3(N)CC3)c(F)cc3c(=O)c(C(=O)O)cn1c23 [pazufloxacin] | – | inactive: -0.654 | –
11 | C[C@H]1COc2c(C3(N)CC3)c(F)cc3c(=O)c(C(=O)O)cn1c23 | inactive: -1.58 | – | inactive: -2.06
12 | CC(=O)N[C@@H](CSSC[C@H](NC(C)=O)C(=O)O)C(=O)O [D-7193 (as di-L-lysine salt)] | inactive: -0.936 | inactive: -0.0401 | inactive: -1.05
13 | CCC(C)(C)C(=O)O[C@H]1C[C@@H](C)C=C2C=C[C@H](C)[C@H](CC[C@@H]3C[C@@H](O)CC(=O)O3)[C@H]21 | inactive: 0.443 | – | inactive: 1.15
14 | CCC(C)(C)C(=O)O[C@H]1C[C@@H](C)C=C2C=C[C@H](C)[C@H](CC[C@@H]3C[C@@H](O)CC(=O)O3)[C@H]21 [Simvastatin] | – | inactive: -0.561 | –
15 | CC1CC/C(=N/Nc2ccccc2)c2ncc(C(=O)O)c(=O)n21 (stereo not drawn) [Chinoin-1045] | inactive: 0.21 | inactive: -0.441 | inactive: -0.00427

In another format: results already given.
COC(=O)c1ccccc1-c1c2ccc(N)cc2[o+]c2cc(N)ccc12 [Rhodamine 123]
  TEAD-luciferase reporter activity (compound concentration: 200 nM): inactive: 2.77; TEAD-luciferase reporter activity (compound concentration: 2 uM): inactive: -1.07; TEAD-luciferase reporter activity (compound concentration: 10 uM): inactive: -0.44
COc1ccc(CN2CCCCC23Cc2ccccc2CNC3=O)cc1 (stereo not drawn)
  TEAD-luciferase reporter activity (compound concentration: 200 nM): inactive: -1.72; TEAD-luciferase reporter activity (compound concentration: 10 uM): inactive: -0.931
